Patent US7314747
No constants are given. Whether binding was seen depends on the method and setting. Some results given as binding are weak or reduced against the parent protein; the word gives no strength. For part of these data: Where a sequence is shown, tags or fusion partners need not be part of it.

Sequences of proteins named here, by UniProt entry; tags and fusion partners are left off. A change or cut given only in a name is not applied to a line headed by its entry.
UniProt Q9Y618: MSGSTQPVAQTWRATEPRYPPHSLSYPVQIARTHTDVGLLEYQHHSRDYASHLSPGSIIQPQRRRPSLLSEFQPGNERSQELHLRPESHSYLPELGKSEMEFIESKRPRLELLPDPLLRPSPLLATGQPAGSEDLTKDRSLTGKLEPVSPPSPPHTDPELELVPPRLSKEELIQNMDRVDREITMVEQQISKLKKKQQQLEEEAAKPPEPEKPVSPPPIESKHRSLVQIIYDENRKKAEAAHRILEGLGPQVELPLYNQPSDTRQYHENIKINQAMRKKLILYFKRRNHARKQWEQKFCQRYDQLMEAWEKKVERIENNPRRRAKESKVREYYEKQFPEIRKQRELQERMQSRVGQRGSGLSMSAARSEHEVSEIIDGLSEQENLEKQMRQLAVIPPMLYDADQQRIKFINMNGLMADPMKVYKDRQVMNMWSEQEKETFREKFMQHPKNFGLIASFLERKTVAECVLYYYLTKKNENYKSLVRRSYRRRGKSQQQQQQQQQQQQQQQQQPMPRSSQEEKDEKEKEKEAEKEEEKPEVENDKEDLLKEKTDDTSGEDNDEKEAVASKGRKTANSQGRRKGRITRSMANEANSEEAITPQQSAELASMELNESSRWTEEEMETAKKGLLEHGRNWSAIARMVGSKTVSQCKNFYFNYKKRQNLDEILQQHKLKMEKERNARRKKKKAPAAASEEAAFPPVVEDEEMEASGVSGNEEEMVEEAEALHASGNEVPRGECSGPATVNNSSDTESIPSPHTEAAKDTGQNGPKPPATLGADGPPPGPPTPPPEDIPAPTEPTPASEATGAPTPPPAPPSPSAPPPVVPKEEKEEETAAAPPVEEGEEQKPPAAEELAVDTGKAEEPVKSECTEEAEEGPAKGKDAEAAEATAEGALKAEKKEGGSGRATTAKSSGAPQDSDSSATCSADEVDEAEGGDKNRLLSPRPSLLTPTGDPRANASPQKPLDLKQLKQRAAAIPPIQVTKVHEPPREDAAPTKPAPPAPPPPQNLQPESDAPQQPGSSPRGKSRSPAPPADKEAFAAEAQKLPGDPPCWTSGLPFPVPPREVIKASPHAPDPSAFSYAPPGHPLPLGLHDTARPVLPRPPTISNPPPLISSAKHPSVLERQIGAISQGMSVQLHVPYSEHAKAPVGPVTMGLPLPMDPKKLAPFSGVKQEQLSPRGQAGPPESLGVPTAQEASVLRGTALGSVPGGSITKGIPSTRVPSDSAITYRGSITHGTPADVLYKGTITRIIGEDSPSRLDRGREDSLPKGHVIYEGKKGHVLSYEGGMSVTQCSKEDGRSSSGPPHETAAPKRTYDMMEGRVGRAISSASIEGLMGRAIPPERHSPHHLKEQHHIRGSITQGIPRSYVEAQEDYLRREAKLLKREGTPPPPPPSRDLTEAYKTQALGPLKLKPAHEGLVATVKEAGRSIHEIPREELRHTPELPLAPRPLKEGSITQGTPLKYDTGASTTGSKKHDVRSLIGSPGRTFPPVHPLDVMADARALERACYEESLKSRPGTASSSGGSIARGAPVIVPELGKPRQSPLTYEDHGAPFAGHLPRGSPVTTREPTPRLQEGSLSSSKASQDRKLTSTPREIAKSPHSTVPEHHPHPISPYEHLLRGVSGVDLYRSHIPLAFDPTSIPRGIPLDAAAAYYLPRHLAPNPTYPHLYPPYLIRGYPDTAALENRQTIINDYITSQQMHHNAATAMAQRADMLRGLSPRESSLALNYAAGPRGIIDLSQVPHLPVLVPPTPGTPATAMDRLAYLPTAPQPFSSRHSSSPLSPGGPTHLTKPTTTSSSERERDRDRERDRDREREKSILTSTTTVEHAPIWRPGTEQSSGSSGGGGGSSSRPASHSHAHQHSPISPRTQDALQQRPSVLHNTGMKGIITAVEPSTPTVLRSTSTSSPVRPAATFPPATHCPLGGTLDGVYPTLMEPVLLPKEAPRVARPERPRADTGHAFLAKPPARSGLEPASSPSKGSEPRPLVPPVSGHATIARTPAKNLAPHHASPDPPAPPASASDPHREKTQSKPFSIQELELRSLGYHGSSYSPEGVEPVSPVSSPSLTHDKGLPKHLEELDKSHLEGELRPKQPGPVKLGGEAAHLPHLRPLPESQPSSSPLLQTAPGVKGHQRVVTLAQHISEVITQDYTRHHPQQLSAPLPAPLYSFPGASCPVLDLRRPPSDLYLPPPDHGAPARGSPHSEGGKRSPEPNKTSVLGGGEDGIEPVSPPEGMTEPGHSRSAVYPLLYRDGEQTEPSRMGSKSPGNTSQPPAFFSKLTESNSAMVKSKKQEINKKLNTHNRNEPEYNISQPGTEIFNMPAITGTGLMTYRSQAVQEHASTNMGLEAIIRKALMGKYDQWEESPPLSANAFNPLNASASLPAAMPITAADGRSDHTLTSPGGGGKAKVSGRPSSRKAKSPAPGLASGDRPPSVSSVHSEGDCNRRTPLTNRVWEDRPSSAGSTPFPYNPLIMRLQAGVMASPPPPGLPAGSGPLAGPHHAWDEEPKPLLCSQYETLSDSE

How the values were obtained:
[1] = molecular target: Gal4-c-SMRT (aa 981 to C terminus) (human); test: mammalian two-hybrid in CV-1 cells (with VP16-USP)
[2] = molecular target: Gal4-c-SMRT (aa 981 to C terminus) (human); test: mammalian two-hybrid in CV-1 cells (with VP16-USP), FIG. 6B
[3] = molecular target: SMRT, original yeast two-hybrid clone (C-SMRT, aa 981 to C-terminal end) (human) (UniProt Q9Y618); test: yeast two-hybrid, β-galactosidase, FIG. 7

B1: EcR (wild-type ecdysone receptor, EcRB1) (receptor)
chain: MKRRWSNNGGFMRLPEESSSEVTSSSNGLVLPSGVNMSPSSLDSHDYCDQDLWLCGNESGSFGGSNGHGLSQQQQSVITLAMHGCSSTLPAQTTIIPINGNANGNGGSTNGQYVPGATNLGALANGMLNGGFNGMQQQIQNGHGLINSTTPSTPTTPLHLQQNLGGAGGGGIGGMGILHHANGTPNGLIGVVGGGGGVGLGVGGGGVGGLGMQHTPRSDSVNSISSGRDDLSPSSSLNGYSANESCDAKKSKKGPAPRVQEELCLVCGDRASGYHYNALTCEGCKGFFRRSVTKSAVYCCKFGRACEMDMYMRRKCQECRLKKCLAVGMRPECVVPENQCAMKRREKKAQKEKDKMTTSPSSQHGGNGSLASGGGQDFVKKEILDLMTCEPPQHATIPLLPDEILAKCQARNIPSLTYNQLAVIYKLIWYQDGYEQPSEEDLRRIMSQPDENESQTDVSFRHITEITILTVQLIVEFAKGLPAFTKIPQEDQITLLKACSSEVMMLRMARRYDHSSDSIFFANNRSYTRDSYKMAGMADNIEDLLHFCRQMFSMKVDNVEYALLTAIVIFSDRPGLEKAQLVEAIQSYYIDTLRIYILNRHCGDSMSLVFYAKLLSILTELRTLGNQNAEMCFSLKLKNRKLPKFLEEIWDVHAIPPSVQSHLQITQEENERLERAERMRASVGGAITAGIDCDSASTSAAAAAAQHQPQPQPQPQPSSLTQNDSQHQTQPQLQPQLPPQLQGQLQPQLQPQLQTQLQPQIQPQPQLLPVSAPVPASVTAPGSLSAVSTSSEYMGGSAAIGPITPATTSSITAAVTASSTTSAVPMGNGVGVGVGVGGNVSMYANAQTAMALMGVALHSHQEQLIGGVAVKSEHSTTA
binding [1]: binds
binding [2]: binds

B2: pAS-EcR (Gal4-DBD fused to aa 223-878 of EcRB1) (protein, Drosophila, UniProt P34021 223-878, looked up, not shown: large carriers)
chain: SISSGRDDLSPSSSLNGYSANESCDAKKSKKGPAPRVQEELCLVCGDRASGYHYNALTCEGCKGFFRRSVTKSAVYCCKFGRACEMDMYMRRKCQECRLKKCLAVGMRPECVVPENQCAMKRREKKAQKEKDKMTTSPSSQHGGNGSLASGGGQDFVKKEILDLMTCEPPQHATIPLLPDEILAKCQARNIPSLTYNQLAVIYKLIWYQDGYEQPSEEDLRRIMSQPDENESQTDVSFRHITEITILTVQLIVEFAKGLPAFTKIPQEDQITLLKACSSEVMMLRMARRYDHSSDSIFFANNRSYTRDSYKMAGMADNIEDLLHFCRQMFSMKVDNVEYALLTAIVIFSDRPGLEKAQLVEAIQSYYIDTLRIYILNRHCGDSMSLVFYAKLLSILTELRTLGNQNAEMCFSLKLKNRKLPKFLEEIWDVHAIPPSVQSHLQITQEENERLERAERMRASVGGAITAGIDCDSASTSAAAAAAQHQPQPQPQPQPSSLTQNDSQHQTQPQLQPQLPPQLQGQLQPQLQPQLQTQLQPQIQPQPQLLPVSAPVPASVTAPGSLSAVSTSSEYMGGSAAIGPITPATTSSITAAVTASSTTSAVPMGNGVGVGVGVGGNVSMYANAQTAMALMGVALHSHQEQLIGGVAVKSEHSTTA
binding [3]: binds
